In patent publication US20150050410A1, “COMPOUNDS, COMPOSITIONS, AND METHODS FOR MODULATING SWEET TASTE” (Chromocell Corporation, priority 2013, published 2015):
Some entries share one result that the patent states for a list of compounds.

System: perception of the sweet taste of an aqueous solution of sweetener in humans
Assay: Two-alternative forced choice "sip and spit" method (2AFC)
Type: in vivo
Settings: test sample 5% sucrose; compound 15 ppm; positive control conc. / test sample conc.
Procedure: The taste test panelists used in the Examples 1-3 were selected using a sensory acuity screening program. Candidate taste panelists were recruited, with prescreening and personal interviews, and were assessed and for their ability to detect, recognize and differentiate basic taste attributes or mixtures thereof as part of a standardized acuity test. This included basic tastes of sweet, sour, salty, bitter and umami, as well as having the capacity to focus on specific aspects of sensory character such as ranking the various tastes perceived and identifying the basic tastes presented at threshold levels.
The effect of the test compounds on the perception of the sweet taste of an aqueous solution of sweetener in humans was evaluated using a two-alternative forced choice “sip and spit” method (2AFC).
The aqueous sweetener solutions were prepared by adding, fructose, sucrose or glucose (by weight), to water to achieve the desired concentration.
Compounds were first prepared as a 500-fold concentrated stock solution in 100% ethanol. […]
Panelists were instructed not to eat or drink (except water) for at least 1 h before the test. […] Data were analyzed using binomial probabilities.
Approximate levels of sweetness enhancement in column 5 of Table 2 were calculated as follows: […]

Structure (SMILES): COc1ccc([C@H]2CC(=O)c3c(O)cccc3O2)cc1O (single isomer, unassigned) [Compound 3]
- Fold increase in perceived sweetness: > 1.2 X
